# According to patent US5478809A, “TAN-1511, its derivatives, production and use thereof” (Takeda Chemical Industries, Ltd., priority 1992, dated 1995):
# At least one peptide structure holds a part that was inferred or is arguable (an end, a ring closure or a residue). Where a SMILES comes first, the peptide text is derived from it. The star is where a group is joined. Propyl(2R-PamO,3-PamO) = CCCCCCCCCCCCCCCC(=O)OC[C@H](C*)OC(=O)CCCCCCCCCCCCCCC; Myristoyl = CCCCCCCCCCCCCC(=O)*
# Columns and labels:
# [1] = test system: bone marrow cells of BALB/c mice; test: enhancing proliferation of bone marrow cells of mice (MTT reduction method); format: cell-based; details: concentration at which 1.3 or more times as much proliferation as without compound was observed
# [2] = test system: leukocytes of peripheral blood; test: enhancing the number of leukocytes in cyclophosphamide-treated mice; format: in vivo, CDF1/Crj mice; details: cyclophosphamide 150 mg/kg orally, then compound 0.13 mg/kg/day s.c. for 5 days; mice without cyclophosphamide = 100%
# spleen cells of mice = test: number of spleen cells in cyclophosphamide-treated mice (Experimental Example 4); format: in vivo, BALB/c mouse; details: cyclophosphamide 200 mg/kg i.p., then test compound 1.0 mg/kg/day i.p. for 4 days; saline/2% gum arabic mouse = 100%
# Procedure: A BALB/c mouse was injected intraperitoneally with cyclophosphamide dissolved in physiological saline solution at a dose of 200 mg/kg. From the day after next, the animal was administered intraperitoneally for 4 consecutive days with the test compound suspended in physiological saline solution containing 2% gum arabic. On the day following completion of the administration, number of trypan blue chromophobic cells of spleen was counted.
SMILES,Minimum Effective Concentration (MEC) [1] [ng/mL],Number of leukocytes (%) [2] [%],Number of abdominal cavity cells (%) (spleen cells of mice)
"CCCCCCCCCCCCCCCC(=O)OC[C@H](CSC[C@H](NC(=O)CCCCCCCCCCCCC)C(=O)NCC(=O)NCC(=O)NCC(=O)N[C@@H](CCC(=O)O)C(=O)N[C@H](C(=O)N[C@H](C(=O)O)[C@@H](C)O)[C@@H](C)O)OC(=O)CCCCCCCCCCCCCCC [Compound 9, (2R,6R)-2-Myr-amino-6,7-bis(PamO)-4-THT-Gly-Gly-Gly-Glu-Thr-Thr-OH] (Myristoyl-C(Propyl(2R-PamO,3-PamO))GGGETT-OH)",0.078,107,–
"CCCCCCCCCCCCCCCC(=O)OC[C@H](CSC[C@H](NC(=O)CCCCCCCCCCCCC)C(=O)NCC(=O)N[C@@H](CCC(=O)O)C(=O)O)OC(=O)CCCCCCCCCCCCCCC [Compound 19, (2R,6R)-2-Myr-amino-6,7-bis(PamO)-4-THT-Gly-Glu-OH]",0.156,90,–
"CCCCCCCCCCCCCCCC(=O)OC[C@H](CSC[C@H](NC(=O)CCCCCCCCCCCCC)C(=O)NCC(=O)NCC(=O)N[C@@H](CCC(=O)O)C(=O)O)OC(=O)CCCCCCCCCCCCCCC [Compound 16, (2R,6R)-2-Myr-amino-6,7-bis(PamO)-4-THT-Gly-Gly-Glu-OH] (Myristoyl-C(Propyl(2R-PamO,3-PamO))GGE-OH)",–,98,–
"CCCCCCCCCCCCCCCC(=O)OC[C@H](CSC[C@H](NC(=O)CCCCCCCCCCCCC)C(=O)NCC(=O)NCC(=O)NCC(=O)N[C@@H](CCC(=O)O)C(=O)O)OC(=O)CCCCCCCCCCCCCCC [Compound 12, (2R,6R)-2-Myr-amino-6,7-bis(PamO)-4-THT-Gly-Gly-Gly-Glu-OH] (Myristoyl-C(Propyl(2R-PamO,3-PamO))GGGE-OH)",0.313,–,112
